Results are given in words; binding and its absence hold for the method and conditions named. In cells and extracts the contact can be indirect. Binding can be weak; no strength is given. Where a sequence is shown, tags or fusion partners need not be part of it.
Target: T1, ASB10-FLAG (human), full length (human) (UniProt Q8WXI3)
T1 sequence: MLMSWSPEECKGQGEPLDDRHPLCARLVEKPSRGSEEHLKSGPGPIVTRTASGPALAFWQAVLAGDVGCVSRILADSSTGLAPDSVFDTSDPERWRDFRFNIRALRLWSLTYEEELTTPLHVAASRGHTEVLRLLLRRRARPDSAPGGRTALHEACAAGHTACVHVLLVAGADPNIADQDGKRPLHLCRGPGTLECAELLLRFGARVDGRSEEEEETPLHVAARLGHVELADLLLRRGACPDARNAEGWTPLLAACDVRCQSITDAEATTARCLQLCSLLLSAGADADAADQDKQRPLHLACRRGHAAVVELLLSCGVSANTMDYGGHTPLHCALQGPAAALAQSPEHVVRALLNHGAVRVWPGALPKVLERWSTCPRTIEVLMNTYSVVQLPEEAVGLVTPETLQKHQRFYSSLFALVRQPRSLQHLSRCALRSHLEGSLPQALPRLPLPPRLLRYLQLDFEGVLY
Assay: co-IP; HEK293T cells transfected with tagged plasmids (ASB10-FLAG, HSPA1-Myc, their truncations, STUB1-EGFP, Ub-HA); lysates incubated with antibody (FLAG, Myc or HSP70) and Protein A&G magnet beads overnight at 4 °C, washed 5 times with 0.5% PBST; western blot

Substance	binding
HSPA1-Myc, full length (human)	binds
substrate binding domain (containing C terminal) of HSP70 (HSPA1-SBD + C) (human) (domain or fragment)	binds

Source: paper PMC12095639
